Among the data in article PMC10352345 are binding values, retold here.

Assay [1] deals with DR5, endogenous in mouse kidney (mouse (endogenous in kidney)) (UniProt Q9QZM4). The experiment in a line: native gel or EMSA; cells or renal tissues lysed in NETN buffer (20 mM Tris-HCl pH 8.0, 100 mM NaCl, 0.5 mM EDTA, 0.5% NP-40); 12% native PAGE without SDS/DTT/β-mercaptoethanol; blot with anti-DR5; cisplatin or bIRI, KIM1 overexpression or knockout, nystatin. Background: A gel shift assay detects complexes by their altered migration in electrophoresis.

Assay [2] deals with T1, KIM1, endogenous in mouse kidney (mouse (endogenous in kidney)) (UniProt Q5QNS5).
T1 sequence: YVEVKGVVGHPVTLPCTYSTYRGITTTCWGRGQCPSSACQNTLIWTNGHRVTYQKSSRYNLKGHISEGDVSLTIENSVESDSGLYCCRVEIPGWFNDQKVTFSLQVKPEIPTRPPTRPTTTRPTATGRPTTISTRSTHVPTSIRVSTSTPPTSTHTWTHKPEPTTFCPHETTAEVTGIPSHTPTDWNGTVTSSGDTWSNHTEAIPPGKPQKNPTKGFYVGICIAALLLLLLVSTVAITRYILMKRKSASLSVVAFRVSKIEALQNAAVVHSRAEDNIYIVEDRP
The experiment in a line: co-IP; kidneys of mice at Day 3 after cisplatin injury, with or without peptide P2 treatment; IP with anti-KIM1 or IgG; DR5 detected with anti-DR5; pooled samples from 4 mice per lane.

No constants are given. Whether binding was seen depends on the method and setting. For some assays here: In cells and extracts the contact can be indirect. Some results given as binding are weak or reduced against the parent protein; the word gives no strength.

B1: DR5, endogenous in mouse kidney (receptor, UniProt Q9QZM4 53-381)
chain: NPAHNRPAGLQRPEESPSRGPCLAGQYLSEGNCKPCREGIDYTSHSNHSLDSCILCTVCKEDKVVETRCNITTNTVCRCKPGTFEDKDSPEICQSCSNCTDGEEELTSCTPRENRKCVSKTAWASWHKLGLWIGLLVPVVLLIGALLVWKTGAWRQWLLCIKRGCERDPESANSVHSSLLDRQTSSTTNDSNHNTEPGKTQKTGKKLLVPVNGNDSADDLKFIFEYCSDIVPFDSWNRLMRQLGLTDNQIQMVKAETLVTREALYQMLLKWRHQTGRSASINHLLDALEAVEERDAMEKIEDYAVKSGRFTYQNAAAQPETGPGGSQCV
As to B1, the binding entry in assay [1] and in assay [2] was “binds” each time.
